According to the supplement of paper PMC8326762, “A Small Molecule Inhibitor of Pex3–Pex19 Interaction Disrupts Glycosome Biogenesis and Causes Lethality in Trypanosoma brucei” (Frontiers in Cell and Developmental Biology, 2021):
Structures can show the parent of a compound that is named as a salt. The list shows a part of the results. The data scatter; read single values as rough.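 Optical density at 600 nm measured yeast growth. Because the two-hybrid strains grew without histidine, growth required Pex3–Pex19 binding. Trypanosome selectivity meant a compound inhibited the trypanosome-pair strain's growth by more than 65% but the human-pair strain's by less than 65%.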

Tested on: Saccharomyces cerevisiae HF7c pdr5Δ
Test: general growth inhibition of yeast HF7c pdr5Δ in -Leu -Trp medium, relative to DMSO; higher = stronger general growth inhibition
Conditions: 100 µM; 24 h

Row | Compound | general growth inhibition [%]
1 | Fc1ccc(C(OCCN2CCN(CCCc3ccccc3)CC2)c2ccc(F)cc2)cc1 | 14.2
2 | C#CCN[C@H](C)Cc1ccccc1 [R-(-)-Desmethyldeprenyl hydrochloride] | 31
3 | CC(C)N(CCC(C(N)=O)(c1ccccc1)c1ccccn1)C(C)C (centres undefined) [Disopyramide] | 16.7
4 | CP(=O)(O)C1=CCNCC1 | 50.7
5 | c1ccc2c(c1)OCC(C1=NCCN1)O2 (centres undefined) [Idazoxan hydrochloride] | 42.4
6 | NCCc1ccc(O)cc1 [4-Hydroxyphenethylamine hydrochloride] | 50
7 | O=C1CCCN1CC#CCN1CCCC1 [Oxotremorine sesquifumarate salt] | 50.9
8 | CC(N)c1cccc(Cl)c1Cl (racemic) [(±)-2,3-Dichloro-alpha-methylbenzylamine hydrochloride] | 23.5
9 | CC(=O)[C@H]1CC[C@H]2[C@@H]3CC[C@H]4C[C@](C)(O)CC[C@]4(C)[C@H]3CC[C@]12C [Ganaxolone] | 34.4
10 | CN1[C@@H]2CC[C@H]1C[C@@H](OC(=O)C(CO)c1ccccc1)C2 (some centres undefined) [Atropine sulfate] | 37.7
11 | C[N+](C)(C)CC#CCOC(=O)Nc1cccc(Cl)c1 | 55.5
12 | CCCN(CCC)C1CCc2ccc(O)cc2C1 (racemic) [(±)-7-Hydroxy-DPAT hydrobromide] | 39.3
13 | COc1ccc2c(c1O)-c1cccc3c1[C@@H](C2)N(C)CC3 [R(-)-Apocodeine hydrochloride] | 30.3
14 | CN1[C@@H]2C[C@@H](OC(=O)[C@H](CO)c3ccccc3)C[C@H]1[C@H](O)C2 (racemic) [(+/-)-Anisodamine] | 35.2
15 | NNC(N)=O [Semicarbazide hydrochloride] | 46.2
16 | COC(=O)[C@@H](N)CCCNC(=N)N[N+](=O)[O-] [NG-Nitro-L-arginine methyl ester hydrochloride] | 52.2
17 | CN1C(=O)CCS(=O)(=O)C1c1ccc(Cl)cc1 (centres undefined) [Chlormezanone] | 36.8

Row | Compound | general growth inhibition [%]
18 | NC(=O)COc1c(F)cc(SCCNS(=O)(=O)c2ccccc2)cc1F | 38
19 | COc1cc2c(c(OC)c1OC)-c1ccc(OC)c(=O)cc1[C@@H](NC(C)=O)CC2 [Colchicine] | 30.3
20 | COc1ccc2[nH]cc(CCN)c2c1 [O-Methylserotonin hydrochloride] | 49.7
21 | CN1C[C@H](CNC(=O)OCc2ccccc2)C[C@@H]2c3cccc4c3c(cn4C)C[C@H]21 [Metergoline] | 9.3
22 | CNCCc1c[nH]c2ccc(O)cc12 [N-omega-Methyl-5-hydroxytryptamine oxalate salt] | 54.7
23 | COc1ccc2c(c1)[C@]13CCCC[C@@H]1[C@H](C2)N(C)CC3 [Dextromethorphan hydrobromide monohydrate] | 24.4
24 | C#C[C@]1(O)CC[C@H]2[C@@H]3CCC4=Cc5nc6nc7ccccc7n6cc5C[C@]4(C)[C@H]3CC[C@@]21C | 35.7
25 | NC(CCP(=O)(O)O)C(=O)O (racemic) [(±)-2-Amino-4-phosphonobutyric acid] | 34.6
26 | O=S1(=O)N(CCN2CC=C(c3c[nH]c4cc(F)ccc34)CC2)c2cccc3c2N1CCC3 | 6.43
27 | COc1ccc2[nH]c3c(c2c1)CCNC3 [6-Methoxy-1,2,3,4-tetrahydro-9H-pyrido[3,4b] indole] | 7.23
28 | O=[N+]([O-])c1cc(O)c(O)c([N+](=O)[O-])c1 [3,5-Dinitrocatechol] | 17.7
29 | CN[C@@H]1C[C@@H](c2ccc(Cl)c(Cl)c2)c2ccccc21 [Indatraline hydrochloride] | 35.4
30 | CC(C)=CCOc1c2occc2cc2ccc(=O)oc12 [Imperatorin] | 41.9
31 | Clc1ccc(N2CC3CCC(C2)N3)nn1 | 33.3
32 | C=CCc1ccccc1OCC(O)CNC1(C)CCC(C(C)(C)NC(=O)CBr)CC1 (centres undefined) [Bromoacetyl alprenolol menthane] | 41.7
33 | COc1cc([C@@H]2c3cc4c(cc3[C@H](O)[C@H]3COC(=O)[C@H]23)OCO4)cc(OC)c1OC [Podophyllotoxin] | 38.5
34 | CC(=O)O[C@H]1C[C@@H]2CC[C@@H]3[C@H](CC[C@@]4(C)[C@H]3C[C@H]([N+]3(C)CCCCC3)[C@@H]4OC(C)=O)[C@@]2(C)C[C@@H]1[N+]1(C)CCCCC1 [Pancuronium bromide] | 42.5

2 entries picked at random from the list so far, as already listed:
Row | Compound | general growth inhibition [%]
27 | COc1ccc2[nH]c3c(c2c1)CCNC3 [6-Methoxy-1,2,3,4-tetrahydro-9H-pyrido[3,4b] indole] | 7.23
21 | CN1C[C@H](CNC(=O)OCc2ccccc2)C[C@@H]2c3cccc4c3c(cn4C)C[C@H]21 [Metergoline] | 9.3
